Results published in patent US20250283049A1, “AGENT FOR CULTURING ORGANOID IN ABSENCE OF EXTRACELLULAR MATRIX” (KEIO UNIVERSITY, priority 2022, published 2025).

How the values were obtained:
[1] = tested on: human lower gastrointestinal organoids; assay: Organoid morphology by immunostaining; organoids established in Matrigel, cultured without Matrigel with Lats-IN; assay type: cell-based; conditions: absence of Matrigel; Lats-IN 10 μM
[2] = tested on: human large intestine-derived organoids; assay: Morphology by immunostaining of organoids established without Matrigel with Lats-IN, 18 passages; assay type: cell-based; conditions: established without Matrigel with Lats-IN 10 μM, day 7

SMILES: O=C(N=c1sccn1Cc1ccccc1)c1c[nH]c2ncccc12 [Lats-IN]
- expression of stem cell and differentiated cell markers [1]: confirmed to express not only the stem cell marker Lgr5, but also the Paneth cell marker lysozyme, the embryonic cell marker Mucin 2, and the enteroendocrine cell marker chromogranin A
- expression of differentiated cell markers [2]: confirmed to express the embryonic cell marker Mucin 2 and the enteroendocrine cell marker chromogranin A
